The results in this text go back to article PMC5945587.

Chains of the proteins cited; added tags and fusions are not shown.
UniProt Q9UKV8: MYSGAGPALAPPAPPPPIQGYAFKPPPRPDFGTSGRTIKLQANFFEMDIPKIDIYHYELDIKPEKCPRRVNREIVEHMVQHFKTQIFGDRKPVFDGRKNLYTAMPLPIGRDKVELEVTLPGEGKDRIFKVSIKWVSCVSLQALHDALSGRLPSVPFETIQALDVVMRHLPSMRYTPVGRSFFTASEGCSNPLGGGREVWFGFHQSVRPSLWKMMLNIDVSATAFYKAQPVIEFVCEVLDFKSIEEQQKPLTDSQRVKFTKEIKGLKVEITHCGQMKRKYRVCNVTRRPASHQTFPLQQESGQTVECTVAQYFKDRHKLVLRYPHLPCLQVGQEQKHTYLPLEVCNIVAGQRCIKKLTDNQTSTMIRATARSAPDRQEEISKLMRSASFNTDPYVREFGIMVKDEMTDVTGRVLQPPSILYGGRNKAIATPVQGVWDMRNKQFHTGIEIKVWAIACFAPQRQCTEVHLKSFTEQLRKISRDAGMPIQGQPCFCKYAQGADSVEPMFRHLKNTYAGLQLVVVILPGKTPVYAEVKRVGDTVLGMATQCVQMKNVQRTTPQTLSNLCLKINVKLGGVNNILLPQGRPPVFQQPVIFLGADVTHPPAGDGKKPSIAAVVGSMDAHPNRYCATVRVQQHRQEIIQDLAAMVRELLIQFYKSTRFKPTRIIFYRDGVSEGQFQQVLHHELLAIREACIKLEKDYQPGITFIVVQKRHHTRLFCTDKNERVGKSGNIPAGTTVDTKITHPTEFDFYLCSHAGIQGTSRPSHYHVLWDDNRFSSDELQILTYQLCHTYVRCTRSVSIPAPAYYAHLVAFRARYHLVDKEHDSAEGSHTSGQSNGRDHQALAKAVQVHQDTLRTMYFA

This assay deals with Argonaute protein AGO2 (human (endogenous in PC3)) (UniProt Q9UKV8). Put plainly: co-IP; protein fraction of an AGO2 RNA immunoprecipitation (RIP-Assay Kit for microRNA, MBL): anti-AGO2 antibody or mouse IgG control on protein G magnetic beads, precleared PC3 cell extracts (siControl or siPTBP1, 48 h), 4 °C overnight; eluted by boiling in Laemmli buffer, western blot.

These are yes or no findings as the source states them, for the method shown. Binding seen in cells or lysates may run through a third protein.

Regarding “polypyrimidine tract binding protein 1 (PTBP1) (from UniProt P26599-3 1-557)”, the binding entry is given as “no binding”.
